Laboratory results from patent US6764837.
No constants are given. Whether binding was seen depends on the method and setting. Some binding calls cover weakened binding; strength is not graded here.

Sequences of proteins named here, by UniProt entry; tags and fusion partners are left off. A change or cut given only in a name is not applied to a line headed by its entry.
UniProt P0A8V2: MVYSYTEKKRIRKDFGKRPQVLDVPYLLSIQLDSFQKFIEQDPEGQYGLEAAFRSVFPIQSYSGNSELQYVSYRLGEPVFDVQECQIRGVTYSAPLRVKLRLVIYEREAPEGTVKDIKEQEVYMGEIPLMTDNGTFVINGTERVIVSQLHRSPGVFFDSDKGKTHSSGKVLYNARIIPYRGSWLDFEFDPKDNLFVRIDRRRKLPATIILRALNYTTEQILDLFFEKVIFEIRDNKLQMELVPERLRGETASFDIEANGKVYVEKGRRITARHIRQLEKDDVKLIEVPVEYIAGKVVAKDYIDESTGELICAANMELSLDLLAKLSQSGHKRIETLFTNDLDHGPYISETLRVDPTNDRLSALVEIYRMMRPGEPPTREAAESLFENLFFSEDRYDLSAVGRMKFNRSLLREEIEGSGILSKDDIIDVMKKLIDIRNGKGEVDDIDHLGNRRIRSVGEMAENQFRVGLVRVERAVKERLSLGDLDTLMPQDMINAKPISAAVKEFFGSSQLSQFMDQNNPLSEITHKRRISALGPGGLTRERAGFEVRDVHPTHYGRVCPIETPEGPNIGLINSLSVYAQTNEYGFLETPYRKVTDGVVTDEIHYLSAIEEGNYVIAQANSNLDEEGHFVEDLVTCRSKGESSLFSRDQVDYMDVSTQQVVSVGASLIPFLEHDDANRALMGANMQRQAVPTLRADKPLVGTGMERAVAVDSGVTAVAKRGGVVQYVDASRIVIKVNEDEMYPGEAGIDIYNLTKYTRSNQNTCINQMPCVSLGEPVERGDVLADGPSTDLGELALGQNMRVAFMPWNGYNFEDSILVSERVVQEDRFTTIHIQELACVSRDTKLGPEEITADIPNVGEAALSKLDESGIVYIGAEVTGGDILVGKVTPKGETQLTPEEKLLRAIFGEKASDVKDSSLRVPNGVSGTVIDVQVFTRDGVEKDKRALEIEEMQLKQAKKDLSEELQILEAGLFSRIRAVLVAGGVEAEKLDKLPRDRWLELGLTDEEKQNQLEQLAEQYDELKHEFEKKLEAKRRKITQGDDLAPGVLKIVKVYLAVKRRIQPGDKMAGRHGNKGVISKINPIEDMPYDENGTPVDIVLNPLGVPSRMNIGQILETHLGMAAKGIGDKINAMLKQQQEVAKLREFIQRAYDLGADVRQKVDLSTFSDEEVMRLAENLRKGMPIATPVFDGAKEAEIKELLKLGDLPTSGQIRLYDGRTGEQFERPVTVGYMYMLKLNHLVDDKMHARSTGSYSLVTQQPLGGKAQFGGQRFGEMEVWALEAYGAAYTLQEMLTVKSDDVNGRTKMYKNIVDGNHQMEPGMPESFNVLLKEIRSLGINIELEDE
UniProt P0A8T7: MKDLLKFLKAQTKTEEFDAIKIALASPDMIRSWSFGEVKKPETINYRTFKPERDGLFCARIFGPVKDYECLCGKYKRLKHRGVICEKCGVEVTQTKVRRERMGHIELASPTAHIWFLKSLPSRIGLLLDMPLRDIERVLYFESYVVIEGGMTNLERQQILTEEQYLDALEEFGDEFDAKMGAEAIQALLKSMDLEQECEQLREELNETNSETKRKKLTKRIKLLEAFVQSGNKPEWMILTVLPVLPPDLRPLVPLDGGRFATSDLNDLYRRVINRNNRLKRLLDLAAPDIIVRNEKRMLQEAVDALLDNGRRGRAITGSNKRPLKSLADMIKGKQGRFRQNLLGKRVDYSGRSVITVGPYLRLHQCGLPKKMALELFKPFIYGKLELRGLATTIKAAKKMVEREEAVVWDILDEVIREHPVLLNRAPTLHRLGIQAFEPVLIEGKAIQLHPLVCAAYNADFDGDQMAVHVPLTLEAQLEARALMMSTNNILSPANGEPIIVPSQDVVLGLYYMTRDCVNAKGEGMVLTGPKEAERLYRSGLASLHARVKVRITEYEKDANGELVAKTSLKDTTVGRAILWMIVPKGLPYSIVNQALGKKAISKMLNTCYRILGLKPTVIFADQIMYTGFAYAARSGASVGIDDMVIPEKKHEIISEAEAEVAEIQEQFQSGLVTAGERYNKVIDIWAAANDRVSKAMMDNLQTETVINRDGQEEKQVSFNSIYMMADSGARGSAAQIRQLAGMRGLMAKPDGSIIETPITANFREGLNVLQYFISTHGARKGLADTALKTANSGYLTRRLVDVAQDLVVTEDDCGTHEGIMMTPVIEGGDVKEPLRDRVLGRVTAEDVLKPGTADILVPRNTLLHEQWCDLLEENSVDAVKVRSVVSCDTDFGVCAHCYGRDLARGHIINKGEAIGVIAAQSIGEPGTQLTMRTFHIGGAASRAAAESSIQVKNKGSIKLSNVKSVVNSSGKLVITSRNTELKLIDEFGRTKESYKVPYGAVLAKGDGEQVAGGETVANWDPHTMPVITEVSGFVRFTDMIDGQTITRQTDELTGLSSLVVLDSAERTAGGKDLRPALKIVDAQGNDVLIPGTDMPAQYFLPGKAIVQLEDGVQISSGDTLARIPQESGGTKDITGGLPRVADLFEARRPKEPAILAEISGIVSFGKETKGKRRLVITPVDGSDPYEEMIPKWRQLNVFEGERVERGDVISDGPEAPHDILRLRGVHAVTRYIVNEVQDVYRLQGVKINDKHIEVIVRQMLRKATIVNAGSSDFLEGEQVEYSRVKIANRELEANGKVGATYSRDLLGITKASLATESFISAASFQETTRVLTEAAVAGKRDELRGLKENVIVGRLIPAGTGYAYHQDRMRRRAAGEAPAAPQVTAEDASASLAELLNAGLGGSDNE
UniProt P00579: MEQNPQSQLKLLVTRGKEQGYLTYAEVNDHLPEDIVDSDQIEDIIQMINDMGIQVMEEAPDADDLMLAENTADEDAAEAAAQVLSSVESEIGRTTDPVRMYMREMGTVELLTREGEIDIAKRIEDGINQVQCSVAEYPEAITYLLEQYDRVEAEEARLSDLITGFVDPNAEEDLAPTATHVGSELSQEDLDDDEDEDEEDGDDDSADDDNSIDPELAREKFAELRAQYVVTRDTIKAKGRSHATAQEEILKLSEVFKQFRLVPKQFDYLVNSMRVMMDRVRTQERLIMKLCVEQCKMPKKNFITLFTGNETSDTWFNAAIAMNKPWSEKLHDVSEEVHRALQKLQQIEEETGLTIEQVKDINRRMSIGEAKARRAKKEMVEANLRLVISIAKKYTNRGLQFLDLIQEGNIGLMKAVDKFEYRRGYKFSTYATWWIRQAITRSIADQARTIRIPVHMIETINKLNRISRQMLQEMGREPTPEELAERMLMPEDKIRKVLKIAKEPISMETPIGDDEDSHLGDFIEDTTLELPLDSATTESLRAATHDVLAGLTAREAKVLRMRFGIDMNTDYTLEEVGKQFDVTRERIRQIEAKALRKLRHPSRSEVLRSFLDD
UniProt A1AGI6: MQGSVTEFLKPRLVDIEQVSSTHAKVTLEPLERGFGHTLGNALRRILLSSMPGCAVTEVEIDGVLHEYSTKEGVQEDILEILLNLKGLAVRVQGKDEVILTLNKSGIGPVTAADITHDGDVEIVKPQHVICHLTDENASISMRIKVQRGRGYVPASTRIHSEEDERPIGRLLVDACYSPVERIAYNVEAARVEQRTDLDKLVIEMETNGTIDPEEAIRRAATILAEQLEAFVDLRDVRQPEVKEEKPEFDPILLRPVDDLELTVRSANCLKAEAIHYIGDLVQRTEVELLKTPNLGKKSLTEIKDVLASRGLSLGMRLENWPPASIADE

Experiments:
[1] = molecular target: E. coli RNA polymerase β subunit (Escherichia coli) (UniProt P0A8V2); assay: in vitro reconstitution of RNAP, SDS-PAGE (FIG. 4A)
[2] = molecular target: E. coli RNA polymerase β′ subunit (Escherichia coli) (UniProt P0A8T7); assay: as above
[3] = molecular target: E. coli RNA polymerase σ70 subunit (Escherichia coli) (UniProt P00579); assay: as above
[4] = molecular target: E. coli RNA polymerase β subunit (Escherichia coli) (UniProt P0A8V2); assay: in vitro reconstitution of RNAP, sizing column, SDS-PAGE (FIG. 4A)
[5] = molecular target: E. coli RNA polymerase β′ subunit (Escherichia coli) (UniProt P0A8T7); assay: as above
[6] = molecular target: E. coli RNA polymerase σ70 subunit (Escherichia coli) (UniProt P00579); assay: as above

Measured: binding

His-tagged RpoA (α subunit of RNA polymerase) of E. coli (from UniProt A1AGI6 1-329)
binds: all assays above
